# Binding screen against folded nucleic acids

Source: the ROBIN nucleic acid binder screens (doi:10.1002/anie.202211358).

Targets, with sequences 5′ to 3′:
PreQ1: PreQ1 riboswitch RNA pseudoknot, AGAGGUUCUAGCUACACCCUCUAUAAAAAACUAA. From B. subtilis. About 24,000 compounds screened, about 170 hits.

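Compounds were printed on reactive glass slides in duplicate spots, a dye-labelled oligonucleotide was laid over them, and the fluorescence left after washing was read. For the PreQ1, TPP and SAM-II riboswitches the laboratory earlier reported (doi:10.1038/s41467-019-09493-3) 1 µM RNA, 2 h, and a rule that included a mean Z-score above 3 (spot signal-to-noise against the whole library), a score well above that on a control array, and duplicate spots agreeing (coefficient of variation under 100). The data file gives only the calls; its cut-offs may differ, and compounds hitting several targets are kept. These are primary screening calls, not affinities; a compound without a hit may have attached poorly or may still bind in solution.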
“hit” means called a hit, “none” means screened and not called a hit.
The compounds are a random part of those screened.

| # | Compound | PreQ1 |
|---|---|---|
| 1 | `COc1ccc2c(Oc3ccc(NC(=O)c4c(C)n(CC(C)(C)O)n(-c5ccccc5)c4=O)cc3F)ccnc2c1` | none |
| 2 | `Cc1cccc(Nc2nc(N)nc(CN3C[C@@H]4CC[C@H](C3)N(C)C4=O)n2)c1` | none |
| 3 | `CC1=CC(C)(C)Nc2ccc(OC(=O)CN3C(=O)c4ccccc4C3=O)cc21` | none |
| 4 | `O=C(CCN1CCNCC1)N1CCC2(CCNCC2)CC1` | none |
| 5 | `CC(C)(C)c1cc(NCCCn2ccnc2)n2ncc(-c3ccccc3Cl)c2n1` | none |
| 6 | `O=C(c1ccc(CNc2c(N3CCCC3)c(=O)c2=O)cc1)N1CCCCCC1` | none |
| 7 | `O=S1(=O)N=C(NCCCCO)c2ccccc21` | none |
| 8 | `Cc1cccc(C)c1Nc1c(-c2cc(Br)ccc2O)nc2[nH]cnn12` | none |
| 9 | `O=C(Cn1cc2ccccc2n1)N1CCN(CCO)[C@@H]2CS(=O)(=O)C[C@@H]21` | none |
| 10 | `COc1ccc(C2=C(C)C(NCCCN3CCN(c4cc(C)ccc4C)CC3)=NS2(=O)=O)cc1` | none |
| 11 | `O=S(=O)(NCc1cc2n(n1)CCNC2)c1ccc(OC(F)(F)F)cc1` | none |
| 12 | `CCn1c(=N)n(CC(O)COc2ccccc2OC)c2ccccc21` (stereo unspecified) | none |
| 13 | `Cc1cc(NCC(O)CN2CCCC2)nc(-c2ccccc2O)n1` (stereo unspecified) | none |
| 14 | `OC(COc1c(F)cc(Br)cc1F)CN1CCOCC1` (stereo unspecified) | none |
| 15 | `CC12CCC(C(NC(=S)NN)C1=O)C2(C)C` (stereo unspecified) | none |
| 16 | `CCc1cnc(N)nc1NCCCNc1ccc(C)cn1` | none |
| 17 | `Cc1nc2cc(Cl)c(Cl)cc2n1CCCO` | hit |
| 18 | `Cn1c(CNC(=O)CN)cc(=O)n(C)c1=O` | none |
| 19 | `Cc1ccc(-c2noc(-c3cccnc3NCCc3ccccc3)n2)cc1` | none |
| 20 | `Cc1ccc(CNC(=O)c2nnn(Cc3ccc(Br)cc3)c2N)cc1` | none |
| 21 | `CCOC(=O)CSc1nc(N)cc(O)n1` | none |
| 22 | `CCNC(=O)C[C@H]1N=C(c2ccc(Cl)cc2)c2cc(OC)ccc2-n2c(C)nnc21` | none |
| 23 | `COc1ccc(-c2csc(N)n2)cc1Br` | none |
| 24 | `O=C(Nc1ccc(OCC(O)Cn2c3ccccc3c3ccccc32)cc1)c1ccccc1` (stereo unspecified) | none |
| 25 | `CCOC(=O)c1cnc2ccc(Br)cc2c1NCCN1CCOCC1` | none |
| 26 | `COc1cc2ncnc(Nc3ccc(O)c(Br)c3)c2cc1OC` | none |
| 27 | `OC1(CN2CCC(Oc3ccc(F)cc3)CC2)CCCNC1` (stereo unspecified) | none |
| 28 | `Cc1cc(N2CCN(S(=O)(=O)c3cccc(C(F)(F)F)c3)CC2)nc(NC2CCCCC2)n1` | none |
| 29 | `CC(C)CNc1nc(N(C)C)nc(-n2cnc(SCc3ccccc3)n2)n1` | none |
| 30 | `Clc1ccc(Nc2c(-c3ccccn3)nc3cnccn23)cc1` | none |
| 31 | `Cc1ccccc1-c1cc(O)c2c(c1)CN(C(=O)c1cc(N)[nH]n1)CCO2` | none |
| 32 | `Cc1n[nH]c(CN2CCN(C)C(CO)C2)c1Cl` (stereo unspecified) | none |
| 33 | `OCCSc1ccc(Cc2ccc(SCCO)cc2)cc1` | none |
| 34 | `Cc1ccc(CCC(=O)N2C[C@@H](CN3CCCN(C)CC3)C[C@H](CO)C2)cc1` | none |
| 35 | `NCc1nnc2ccc(Cl)nn12` | none |
| 36 | `O=S(=O)(N1CCOCC1)N1CCN(CC(O)COc2ccc3c(c2)CCC3)CC1` (stereo unspecified) | none |
| 37 | `Cc1[nH]nc(CCC(=O)N2CC[C@@H](c3ccc4c(c3)OCO4)[C@H](O)C2)c1C` | none |
| 38 | `CN1CCN(C2=C(Nc3ccc(F)cc3)C(=O)c3ccccc3C2=O)CC1` | none |
| 39 | `Cc1c(CN2CCC(c3nnc(CN(C)CCO)n3C)CC2)[nH]c2ccccc12` | none |
| 40 | `CCc1nc(N)nc(N2CCC(O)(c3ccccc3)CC2)c1C` | none |
| 41 | `Oc1cc(CN2Cc3ccccc3C(O)C2)nc2ccc(F)cc12` (stereo unspecified) | none |
| 42 | `CCOC(=O)N1CCC(Nc2c(N3CCN(C4CCCCC4)CC3)c(=O)c2=O)CC1` | none |
| 43 | `COC(=O)C1=C(N)Oc2cc(C)n(C)c(=O)c2C12C(=O)Nc1ccccc12` (stereo unspecified) | none |
| 44 | `Nc1c(C(=O)Nc2ccc(F)cc2)sc2nc3c(cc12)CCCC3` | none |
| 45 | `COc1ccc(/N=N/c2ccc(N)nc2N)cc1` | none |
| 46 | `CN(C)c1cc(-c2ccccc2)nc(N)n1` | none |
| 47 | `CN(C)CCCn1ccnc1C1CCN(c2cc3nncn3c(N)n2)CC1` | none |
| 48 | `CC(C)CNC1=C(C(=O)N2CCOCC2)S(=O)(=O)c2ccccc21` | none |
| 49 | `Cl.O=C1c2cccc3cccc(c23)C(=O)N1CC1CCN(CC(O)COCC2COc3ccccc3O2)CC1` (stereo unspecified) | none |
| 50 | `COCCCn1c(C)c(C)c(S(=O)(=O)c2ccccc2)c1N` | none |
| 51 | `O=S(=O)(c1ccc(Cl)cc1)c1nc(-c2ccccc2)oc1NCCCn1ccnc1` | none |
| 52 | `CCCCCCCCS(=O)(=O)CCN` | none |
| 53 | `O=C(COc1cccnc1)N1CCC2(CCN(C3CCCCC3)CC2)C(CO)C1` (stereo unspecified) | none |
| 54 | `COc1ccc(OC(=O)Nc2ccc([N+](=O)[O-])cc2OC)cc1` | none |
| 55 | `NCCc1ccccc1-c1ccc2c(c1)OCCO2` | none |
| 56 | `COC(=O)CCCNc1cc(C)nc2nc(Cc3ccc(Cl)cc3)nn12` | none |
| 57 | `Nc1ccccc1C(=O)Nc1nc2ccc(Cl)cc2s1` | none |
| 58 | `COc1cccc(N2CC(c3nc4ccccc4n3CC(O)COc3cc(C)cc(C)c3)CC2=O)c1` (stereo unspecified) | none |